{
  "source": "patent US7030087B2",
  "about": "“Synthetic approach to designed chemical structures” (priority 1996, dated 2006)",
  "key": {"[1]": {"tested_on": "EC (endothelial cells)", "assay": "EC proliferation, 3[H]thymidine incorporation assay", "format": "cell-based", "experimental": "Since the in vivo situation of tumor associated EC involves the low expression or even absence of ICAM-1, the next set of experiments aimed to study the ability to reinduce ICAM-I expression after bFBF preincubation. […] In these experiments, HUVEC were pretreated for 3 days with bFGF, subsequently PF4 was added for 3 days and, where indicated in the last 16 hours of culture 4 ng/ml TNFα was added. Human umbilical vein derived endothelial cells (HUVEC) were harvested from normal human umbilical cords by perfusion with 0.125% trypsin/EDTA as described previously. Cells were cultured in fibronectin (FN) coated tissue culture flasks in culture medium (RPMI-1640 with 20% human serum (HS), supplemented with 2 mM glutamine and 100 U/ml penicillin and 0.1 mg/ml streptomycin). Immunofluorescence using indirect PE-conjugated reagents required three separate incubations. 1×10^5 EC were fixed for 1 hour in 1% paraformaldehyde, resuspended in 20 μl appropriately diluted Mab and incubated for 1 hour on ice. […] Stained cells were analyzed on a FACScan flowcytometer. […] Statistical significance of observed differences was determined using the Student's t-test.\nEC proliferation was measured using a ^3[H]thymidine incorporation assay. […] Results are expressed as the arithmetic mean counts per minute (cpm) of triplicate cultures."}, "[2]": {"tested_on": "ICAM-1", "assay": "ICAM-1 expression on endothelial cells (immunofluorescence, FACScan)", "format": "cell-based, human", "experimental": "In a first series of experiments, PF4 and βpep peptides were tested for their ability to prevent bFGF (fibroblast growth factor) mediated downregulation of ICAM-1. […] Simultaneously 100 μg/ml of each PF4, βpep-14, βpep-16, or medium was added. Mean ICAM-1 fluorescence intensity values were determined.\nSince the in vivo situation of tumor associated EC involves the low expression or even absence of ICAM-1, the next set of experiments aimed to study the ability to reinduce ICAM-I expression after bFBF preincubation. […] In these experiments, HUVEC were pretreated for 3 days with bFGF, subsequently PF4 was added for 3 days and, where indicated in the last 16 hours of culture 4 ng/ml TNFα was added. Human umbilical vein derived endothelial cells (HUVEC) were harvested from normal human umbilical cords by perfusion with 0.125% trypsin/EDTA as described previously. […] Stained cells were analyzed on a FACScan flowcytometer. […] Statistical significance of observed differences was determined using the Student's t-test.\nThe energy of EC to stimulation with inflammatory cytokines was the subject of a next series of experiments. […] Autoradiograms were subjected to scanning using a laser densitometer (Model GS670, Bio-Rad, Hercules, Calif.) and data were analysed with the Molecular Analyst PC™ software. […]"}},
  "note": "For at least one compound, name, drawing or mass did not settle the structure.",
  "data": [
    {"smiles": "CNC(=O)[C@H](Cc1ccccc1)NC(=O)[C@H](CC(C)C)[C@H](CSc1cccs1)C(=O)NO", "note": "[BB-94, batimastat, reference compound]", "values": [
      {"measurement": "EC growth in vitro (in words)", "setting": "[1]", "value": "do not affect EC growth in vitro"},
      {"measurement": "effect of other inhibitors of angiogenesis on ICAM-1 expression (in words)", "setting": "[2]", "value": "did not affect ICAM-1 expression"}
    ]}
  ]
}
